Measured values from the supplement of paper PMC10849652.
This is one part of the list.

By UniProt entry, the sequences of proteins in these tests, tags left out. Where a name states a change or a piece, a line headed by the entry shows the natural chain unless it says otherwise.
UniProt Q58FF7, whole entry, looked up: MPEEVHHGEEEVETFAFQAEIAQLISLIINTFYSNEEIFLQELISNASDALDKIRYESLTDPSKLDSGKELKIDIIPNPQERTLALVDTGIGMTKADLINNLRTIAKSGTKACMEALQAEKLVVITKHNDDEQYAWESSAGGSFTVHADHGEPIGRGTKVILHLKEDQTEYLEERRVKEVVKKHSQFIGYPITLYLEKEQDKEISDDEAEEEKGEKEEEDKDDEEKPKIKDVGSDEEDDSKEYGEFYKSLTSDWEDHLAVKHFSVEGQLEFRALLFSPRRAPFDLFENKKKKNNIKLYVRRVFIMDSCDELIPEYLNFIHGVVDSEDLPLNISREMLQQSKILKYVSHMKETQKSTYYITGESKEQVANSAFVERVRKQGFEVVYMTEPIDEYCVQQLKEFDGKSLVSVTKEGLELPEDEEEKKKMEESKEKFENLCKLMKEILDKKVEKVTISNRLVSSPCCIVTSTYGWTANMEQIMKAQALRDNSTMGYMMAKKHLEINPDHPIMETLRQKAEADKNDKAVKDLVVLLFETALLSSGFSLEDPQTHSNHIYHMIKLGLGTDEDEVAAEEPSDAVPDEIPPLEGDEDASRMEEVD
UniProt Q9Y241: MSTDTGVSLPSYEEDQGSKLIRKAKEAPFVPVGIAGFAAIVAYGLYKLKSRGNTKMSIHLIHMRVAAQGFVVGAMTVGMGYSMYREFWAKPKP
UniProt H0YH80: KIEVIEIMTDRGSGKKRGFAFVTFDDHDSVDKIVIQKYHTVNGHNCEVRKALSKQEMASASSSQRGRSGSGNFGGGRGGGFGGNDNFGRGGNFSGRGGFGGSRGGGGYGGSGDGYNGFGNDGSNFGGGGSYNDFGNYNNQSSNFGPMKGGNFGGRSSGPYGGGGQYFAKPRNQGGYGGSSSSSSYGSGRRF
UniProt P23327: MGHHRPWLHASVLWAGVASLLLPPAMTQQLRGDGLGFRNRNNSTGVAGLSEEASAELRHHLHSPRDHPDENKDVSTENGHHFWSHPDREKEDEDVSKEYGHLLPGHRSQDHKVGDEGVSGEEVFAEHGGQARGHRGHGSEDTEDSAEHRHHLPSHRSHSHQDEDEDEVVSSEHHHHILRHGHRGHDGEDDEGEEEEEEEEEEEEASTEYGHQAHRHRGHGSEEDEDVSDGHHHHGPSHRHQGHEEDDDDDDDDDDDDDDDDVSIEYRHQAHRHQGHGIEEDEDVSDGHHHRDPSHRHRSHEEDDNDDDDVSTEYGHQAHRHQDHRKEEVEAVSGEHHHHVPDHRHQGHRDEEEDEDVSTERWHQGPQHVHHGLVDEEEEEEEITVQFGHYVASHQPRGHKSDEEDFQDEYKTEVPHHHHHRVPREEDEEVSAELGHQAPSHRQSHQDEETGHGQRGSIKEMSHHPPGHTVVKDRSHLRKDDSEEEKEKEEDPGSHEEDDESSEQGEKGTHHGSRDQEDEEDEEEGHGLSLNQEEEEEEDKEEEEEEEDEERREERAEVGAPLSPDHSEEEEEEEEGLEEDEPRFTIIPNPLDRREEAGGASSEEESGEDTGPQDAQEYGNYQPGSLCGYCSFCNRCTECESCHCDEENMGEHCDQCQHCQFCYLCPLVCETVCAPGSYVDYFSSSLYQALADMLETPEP
UniProt P17482: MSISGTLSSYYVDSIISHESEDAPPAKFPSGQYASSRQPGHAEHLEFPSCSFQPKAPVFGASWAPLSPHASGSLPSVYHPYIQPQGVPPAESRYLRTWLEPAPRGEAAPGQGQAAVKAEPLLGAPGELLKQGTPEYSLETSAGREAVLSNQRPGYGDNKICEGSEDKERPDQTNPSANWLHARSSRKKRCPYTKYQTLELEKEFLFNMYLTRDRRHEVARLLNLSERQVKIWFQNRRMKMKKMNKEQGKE
UniProt Q86VS8: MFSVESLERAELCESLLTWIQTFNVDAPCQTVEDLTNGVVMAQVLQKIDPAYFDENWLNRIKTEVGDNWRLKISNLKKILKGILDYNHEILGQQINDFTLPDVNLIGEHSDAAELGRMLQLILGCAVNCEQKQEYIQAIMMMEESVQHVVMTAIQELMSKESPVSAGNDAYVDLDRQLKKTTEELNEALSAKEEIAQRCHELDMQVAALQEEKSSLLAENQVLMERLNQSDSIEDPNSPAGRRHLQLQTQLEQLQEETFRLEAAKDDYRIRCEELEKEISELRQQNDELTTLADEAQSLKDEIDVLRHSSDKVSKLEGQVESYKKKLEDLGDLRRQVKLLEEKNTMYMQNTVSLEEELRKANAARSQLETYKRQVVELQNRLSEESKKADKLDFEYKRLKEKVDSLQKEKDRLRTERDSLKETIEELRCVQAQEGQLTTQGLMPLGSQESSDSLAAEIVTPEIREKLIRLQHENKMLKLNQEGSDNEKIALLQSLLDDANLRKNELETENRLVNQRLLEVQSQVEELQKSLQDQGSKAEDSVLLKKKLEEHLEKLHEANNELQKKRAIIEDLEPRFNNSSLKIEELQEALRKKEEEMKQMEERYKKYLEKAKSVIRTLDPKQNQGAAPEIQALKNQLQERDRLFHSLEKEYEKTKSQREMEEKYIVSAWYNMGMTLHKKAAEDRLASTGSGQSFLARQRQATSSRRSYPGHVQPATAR
UniProt P11142, whole entry, looked up: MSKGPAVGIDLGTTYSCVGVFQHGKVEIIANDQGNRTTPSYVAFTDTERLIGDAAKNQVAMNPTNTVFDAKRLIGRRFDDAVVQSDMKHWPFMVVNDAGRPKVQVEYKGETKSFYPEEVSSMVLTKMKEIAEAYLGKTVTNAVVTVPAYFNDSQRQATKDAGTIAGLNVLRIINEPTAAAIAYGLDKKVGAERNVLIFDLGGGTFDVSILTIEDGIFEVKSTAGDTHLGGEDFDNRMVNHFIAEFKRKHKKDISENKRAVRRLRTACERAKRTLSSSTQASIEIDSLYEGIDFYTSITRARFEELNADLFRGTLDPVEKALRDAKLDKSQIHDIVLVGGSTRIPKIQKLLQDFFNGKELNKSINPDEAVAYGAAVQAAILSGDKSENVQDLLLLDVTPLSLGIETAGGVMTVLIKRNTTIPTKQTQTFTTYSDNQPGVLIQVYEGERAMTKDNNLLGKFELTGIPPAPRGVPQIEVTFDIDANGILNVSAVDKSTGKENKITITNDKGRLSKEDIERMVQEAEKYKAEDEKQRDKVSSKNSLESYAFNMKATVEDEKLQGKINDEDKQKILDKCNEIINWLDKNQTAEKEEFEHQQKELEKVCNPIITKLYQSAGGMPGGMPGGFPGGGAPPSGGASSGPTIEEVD
UniProt O60725, whole entry, looked up: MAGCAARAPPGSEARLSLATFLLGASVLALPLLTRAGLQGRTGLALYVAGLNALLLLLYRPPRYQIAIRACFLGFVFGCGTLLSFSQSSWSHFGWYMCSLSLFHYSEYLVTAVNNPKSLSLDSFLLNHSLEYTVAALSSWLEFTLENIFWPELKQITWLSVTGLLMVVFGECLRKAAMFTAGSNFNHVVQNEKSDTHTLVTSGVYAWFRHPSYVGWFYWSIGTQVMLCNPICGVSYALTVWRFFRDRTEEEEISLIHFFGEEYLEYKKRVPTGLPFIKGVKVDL
UniProt P14866: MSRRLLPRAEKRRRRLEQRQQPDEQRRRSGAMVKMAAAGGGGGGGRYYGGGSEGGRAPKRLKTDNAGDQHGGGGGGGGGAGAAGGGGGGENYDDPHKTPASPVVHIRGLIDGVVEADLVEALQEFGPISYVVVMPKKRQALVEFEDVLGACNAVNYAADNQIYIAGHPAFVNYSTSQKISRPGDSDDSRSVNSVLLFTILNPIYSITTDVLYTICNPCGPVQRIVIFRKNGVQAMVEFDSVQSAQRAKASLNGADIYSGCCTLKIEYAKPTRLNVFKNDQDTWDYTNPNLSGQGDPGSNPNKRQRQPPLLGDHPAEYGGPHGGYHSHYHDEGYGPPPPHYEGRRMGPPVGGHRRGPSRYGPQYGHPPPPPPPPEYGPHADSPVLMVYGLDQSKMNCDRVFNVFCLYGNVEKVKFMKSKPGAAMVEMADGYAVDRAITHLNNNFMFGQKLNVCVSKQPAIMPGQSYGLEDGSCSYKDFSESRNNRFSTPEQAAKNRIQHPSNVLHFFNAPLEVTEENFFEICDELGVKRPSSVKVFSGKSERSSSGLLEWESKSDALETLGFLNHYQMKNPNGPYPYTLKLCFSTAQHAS
UniProt Q92902: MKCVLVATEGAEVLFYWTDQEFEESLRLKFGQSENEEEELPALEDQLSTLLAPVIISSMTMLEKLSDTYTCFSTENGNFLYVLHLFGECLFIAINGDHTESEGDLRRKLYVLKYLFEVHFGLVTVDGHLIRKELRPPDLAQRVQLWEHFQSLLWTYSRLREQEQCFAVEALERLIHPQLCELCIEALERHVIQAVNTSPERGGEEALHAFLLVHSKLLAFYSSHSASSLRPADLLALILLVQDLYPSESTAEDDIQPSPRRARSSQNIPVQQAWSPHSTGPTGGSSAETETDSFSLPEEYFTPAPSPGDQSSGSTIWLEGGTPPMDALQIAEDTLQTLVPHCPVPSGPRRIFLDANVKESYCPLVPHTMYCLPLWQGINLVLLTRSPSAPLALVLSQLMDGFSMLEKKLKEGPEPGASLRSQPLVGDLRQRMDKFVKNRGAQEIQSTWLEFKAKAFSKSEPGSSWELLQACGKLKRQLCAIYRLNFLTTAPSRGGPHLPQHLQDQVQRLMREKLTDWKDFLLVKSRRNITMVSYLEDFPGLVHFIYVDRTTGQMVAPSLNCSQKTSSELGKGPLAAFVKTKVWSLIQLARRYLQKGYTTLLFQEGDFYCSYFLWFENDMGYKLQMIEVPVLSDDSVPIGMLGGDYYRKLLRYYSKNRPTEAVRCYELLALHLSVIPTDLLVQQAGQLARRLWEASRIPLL
UniProt P04439, whole entry, looked up: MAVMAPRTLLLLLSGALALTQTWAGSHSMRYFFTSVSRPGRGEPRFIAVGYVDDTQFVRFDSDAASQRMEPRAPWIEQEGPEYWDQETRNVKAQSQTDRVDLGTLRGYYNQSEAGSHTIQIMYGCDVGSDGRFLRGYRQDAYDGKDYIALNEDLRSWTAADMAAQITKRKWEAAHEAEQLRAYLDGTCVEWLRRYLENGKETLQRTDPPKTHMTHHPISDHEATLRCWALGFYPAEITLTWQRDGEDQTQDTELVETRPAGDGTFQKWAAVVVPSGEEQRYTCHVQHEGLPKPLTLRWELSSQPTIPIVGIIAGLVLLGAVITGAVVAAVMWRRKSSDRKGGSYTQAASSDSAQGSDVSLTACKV
UniProt O75506: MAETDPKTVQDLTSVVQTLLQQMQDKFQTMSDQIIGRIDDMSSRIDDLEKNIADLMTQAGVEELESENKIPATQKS
UniProt Q9P0W2: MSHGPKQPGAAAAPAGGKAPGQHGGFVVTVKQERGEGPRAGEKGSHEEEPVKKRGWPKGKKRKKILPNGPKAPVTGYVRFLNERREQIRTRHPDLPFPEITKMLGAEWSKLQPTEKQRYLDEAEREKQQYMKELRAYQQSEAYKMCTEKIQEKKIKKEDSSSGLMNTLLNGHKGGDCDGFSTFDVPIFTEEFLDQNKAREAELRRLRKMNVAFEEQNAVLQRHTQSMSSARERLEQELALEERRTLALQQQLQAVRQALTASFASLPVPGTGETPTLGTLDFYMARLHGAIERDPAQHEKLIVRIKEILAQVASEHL
UniProt Q9NQG7: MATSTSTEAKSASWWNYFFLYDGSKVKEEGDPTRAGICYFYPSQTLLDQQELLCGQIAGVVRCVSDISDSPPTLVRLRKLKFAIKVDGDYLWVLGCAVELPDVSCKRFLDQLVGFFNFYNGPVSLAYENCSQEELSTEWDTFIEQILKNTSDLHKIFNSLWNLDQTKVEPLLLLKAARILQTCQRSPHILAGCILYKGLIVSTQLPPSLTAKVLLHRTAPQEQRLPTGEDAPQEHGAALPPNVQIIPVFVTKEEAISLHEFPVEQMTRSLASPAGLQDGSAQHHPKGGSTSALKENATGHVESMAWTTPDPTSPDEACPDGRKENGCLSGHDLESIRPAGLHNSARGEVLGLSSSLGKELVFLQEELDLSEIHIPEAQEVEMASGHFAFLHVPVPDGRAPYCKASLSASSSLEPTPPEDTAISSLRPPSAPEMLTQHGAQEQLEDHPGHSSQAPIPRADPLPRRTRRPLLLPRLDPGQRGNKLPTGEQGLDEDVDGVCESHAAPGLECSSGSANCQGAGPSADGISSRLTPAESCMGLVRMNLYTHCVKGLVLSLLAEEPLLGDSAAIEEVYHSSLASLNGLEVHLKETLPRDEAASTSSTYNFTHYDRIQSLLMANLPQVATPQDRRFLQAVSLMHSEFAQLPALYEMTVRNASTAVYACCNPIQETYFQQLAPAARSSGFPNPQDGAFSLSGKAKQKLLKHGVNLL

Experiments:
Assay in all cases: log2 fold change, soluble protein after heating vs DMSO (PISA); higher = thermal stabilisation; K562 cells, 10 uM, 30 min; active = over 0.2 and 3.5 SD of the protein, either way, in both replicates (recomputed)
[1] = compound: COC1=CC=C(C=C1)CN2C=CC3=C2C=C(C=C3)C(=O)NO
Outline: (§1)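 K562 cells (2×10^6 cells/mL) were treated with 10 μM compound for 30 min, and aliquots were heated for 3 min over 48°C-58°C. Pooled aliquots were extracted in PBS with 0.5% NP-40 at 4°C, and the supernatant after 21,000xg for 90 min was measured by TMTpro 16plex LC-MS/MS with channel sums equalised. Reported thermal stability, relative to control samples and from duplicates, is a log2 fold change.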

filanesib = compound: CON(C)C(=O)N1N=C(c2cc(F)ccc2F)S[C@@]1(CCCN)c1ccccc1 [filanesib]
Outline: as §1

zotarolimus = compound: CO[C@H]1C[C@@H]2CC[C@@H](C)[C@@](O)(O2)C(=O)C(=O)N2CCCC[C@H]2C(=O)O[C@H]([C@H](C)C[C@@H]2CC[C@H](n3cnnn3)[C@H](OC)C2)CC(=O)[C@H](C)/C=C(\C)[C@@H](O)[C@@H](OC)C(=O)[C@H](C)C[C@H](C)/C=C/C=C/C=C/1C [zotarolimus]
Outline: as §1

idasanutlin = compound: COc1cc(C(=O)O)ccc1NC(=O)[C@@H]1N[C@@H](CC(C)(C)C)[C@](C#N)(c2ccc(Cl)cc2F)[C@H]1c1cccc(Cl)c1F [idasanutlin]
Outline: as §1

alisertib = compound: COc1cc(Nc2ncc3c(n2)-c2ccc(Cl)cc2C(c2c(F)cccc2OC)=NC3)ccc1C(=O)O [alisertib]
Outline: as §1

[2] = compound: COc1cc2nc(-c3cc(F)ccc3O)nc(N[C@@H]3CNC[C@H]3C(C)(C)O)c2cc1OC
Outline: as §1

gefitinib = compound: COc1cc2ncnc(Nc3ccc(F)c(Cl)c3)c2cc1OCCCN1CCOCC1 [gefitinib]
Outline: as §1

[3] = compound: COc1cccc2cc(-c3nc([C@H]4CC[C@H](C(=O)O)CC4)n4ncnc(N)c34)[nH]c12
Outline: as §1

lapatinib = compound: CS(=O)(=O)CCNCc1ccc(-c2ccc3ncnc(Nc4ccc(OCc5cccc(F)c5)c(Cl)c4)c3c2)o1 [lapatinib]
Outline: as §1

pictilisib = compound: CS(=O)(=O)N1CCN(Cc2cc3nc(-c4cccc5[nH]ncc45)nc(N4CCOCC4)c3s2)CC1 [pictilisib]
Outline: as §1

[4] = compound: CS(=O)(=O)c1ccc(-c2cnc(N)c(C(=O)Nc3ccccc3)n2)cc1
Outline: as §1

crizotinib = compound: C[C@@H](Oc1cc(-c2cnn(C3CCNCC3)c2)cnc1N)c1c(Cl)ccc(F)c1Cl [crizotinib]
Outline: as §1

[5] = compound: C[C@H](C1=CC=C(C=C1)C(=O)NC2=C3C=CNC3=NC=C2)N
Outline: as §1

duvelisib = compound: C[C@H](Nc1ncnc2nc[nH]c12)c1cc2cccc(Cl)c2c(=O)n1-c1ccccc1 [duvelisib]
Outline: as §1

gandotinib = compound: Cc1cc(Nc2cc(CN3CCOCC3)c3nc(C)c(Cc4ccc(Cl)cc4F)n3n2)n[nH]1 [gandotinib]
Outline: as §1

[6] = compound: Cc1cc(SCc2sc(-c3ccc(C(F)(F)F)cc3)nc2C)ccc1OCC(=O)O
Outline: as §1

doramapimod = compound: Cc1ccc(-n2nc(C(C)(C)C)cc2NC(=O)Nc2ccc(OCCN3CCOCC3)c3ccccc23)cc1 [doramapimod]
Outline: as §1

ispinesib = compound: Cc1ccc(C(=O)N(CCCN)[C@@H](c2nc3cc(Cl)ccc3c(=O)n2Cc2ccccc2)C(C)C)cc1 [ispinesib]
Outline: as §1

tozasertib = compound: Cc1cc(Nc2cc(N3CCN(C)CC3)nc(Sc3ccc(NC(=O)C4CC4)cc3)n2)n[nH]1 [tozasertib]
Outline: as §1

[7] = compound: C[C@@H]1COCCN1C2=NC(=NC(=C2)C3(CC3)S(=O)(=O)C)C4=C5C=CNC5=CC=C4
Outline: as §1

Row | Target | log2 fold change [1] | log2 fold change (filanesib) | log2 fold change (zotarolimus) | log2 fold change (idasanutlin) | log2 fold change (alisertib) | log2 fold change [2] | log2 fold change (gefitinib) | log2 fold change [3] | log2 fold change (lapatinib) | log2 fold change (pictilisib) | log2 fold change [4] | log2 fold change (crizotinib) | log2 fold change [5] | log2 fold change (duvelisib) | log2 fold change (gandotinib) | log2 fold change [6] | log2 fold change (doramapimod) | log2 fold change (ispinesib) | log2 fold change (tozasertib) | log2 fold change [7]
1 | HSP90AB3P (UniProt Q58FF7) | inactive: 0.02 | inactive: -0.024 | inactive: 0.171 | inactive: -0.23 | inactive: -0.052 | inactive: 0.035 | inactive: -0.051 | inactive: 0.035 | inactive: -0.03 | inactive: 0.052 | inactive: 0.004 | inactive: 0.001 | inactive: 0.086 | inactive: 0.118 | inactive: -0.068 | inactive: 0.001 | inactive: -0.048 | inactive: -0.035 |  | 
2 | HIGD1A isoform 2 (UniProt Q9Y241) | inactive: -0.005 | inactive: -0.025 |  |  | inactive: 0.035 |  | inactive: 0.049 | inactive: 0.15 |  |  | inactive: 0.182 | inactive: 0.25 |  |  |  |  | inactive: -0.15 | inactive: -0.075 |  | 
3 | HMBS (UniProt F5H226) | inactive: -0.04 | inactive: 0.075 | inactive: -0.138 |  | inactive: 0.844 |  |  | inactive: -0.005 |  | inactive: 0.048 | inactive: 0.672 | inactive: -0.189 | inactive: 0.193 |  | inactive: 0.107 |  | inactive: 0.093 |  | inactive: -0.045 | 
4 | HNRNPK isoform 2 (UniProt P61978) | inactive: 0.008 | inactive: -0.001 | inactive: -0.022 | inactive: -0.011 | inactive: -0.004 | inactive: -0.035 | inactive: 0.051 | inactive: 0.049 | inactive: -0.016 | inactive: 0.004 | inactive: -0.01 | inactive: 0.072 | inactive: -0.028 |  | inactive: -0.108 | inactive: 0.052 | inactive: -0.064 | inactive: -0.025 |  | inactive: 0.074
5 | HIC2 (UniProt Q96JB3) | inactive: -0.067 | inactive: 0.226 | inactive: -0.012 | inactive: 0.238 | inactive: -0.057 | inactive: -0.386 | inactive: -0.073 | inactive: -0.066 | inactive: 0.207 | inactive: -0.052 | inactive: -0.037 | inactive: 0.067 | inactive: 0.043 |  | inactive: 0.088 | inactive: 0.011 | inactive: 0.121 | inactive: -0.061 |  | inactive: -0.079
6 | HNRNPA1 (UniProt H0YH80) | inactive: -0.035 | inactive: 0.526 | inactive: -0.143 | inactive: 0.032 | inactive: -0.288 |  | inactive: -0.016 | inactive: -0.125 |  | inactive: -0.122 | inactive: -0.122 | inactive: -0.034 | inactive: 0.43 |  | inactive: 0.214 |  | inactive: 0.132 | inactive: -0.019 | inactive: 0.094 | inactive: -0.646
7 | HNRNPUL1 (UniProt M0R247) | inactive: -0.028 | inactive: 0.029 | inactive: -0.468 | inactive: 0.277 |  | inactive: 0.117 | inactive: 0.1 |  | inactive: -0.15 |  | inactive: -0.057 | inactive: 0.151 | inactive: 0.722 |  |  | inactive: -0.374 | inactive: -0.014 |  |  | 
8 | HRC (UniProt P23327) | inactive: -0.089 | inactive: 0.019 | inactive: -0.032 | inactive: 0.035 | inactive: -0.059 | inactive: -0.008 | inactive: 0.035 | inactive: -0.007 | inactive: -0.039 | inactive: 0.017 | inactive: 0.027 | inactive: 0.096 | inactive: 0.012 |  | inactive: 0.064 | inactive: -0.033 | inactive: -0.033 | inactive: 0.037 |  | active: -0.342
9 | HOXB9 (UniProt P17482) | inactive: 0.037 | inactive: -0.002 | inactive: 0 | inactive: 0.014 | inactive: -0.018 | inactive: -0.005 | inactive: 0.02 | inactive: -0.068 | inactive: -0.035 |  | inactive: -0.015 | inactive: -0.036 | inactive: -0.033 | inactive: -0.003 |  | inactive: 0.023 | inactive: 0.007 | inactive: -0.041 | inactive: 0.093 | inactive: 0.067
10 | HOOK3 (UniProt Q86VS8) | inactive: -0.074 | inactive: -0.108 | inactive: 0.001 | inactive: 0.036 | inactive: 0.07 | inactive: 0.014 | inactive: -0.006 | inactive: 0.018 | inactive: 0.032 | inactive: -0.021 | inactive: -0.042 | inactive: -0.123 | inactive: 0.036 |  | inactive: -0.067 | inactive: 0.033 | inactive: 0.019 | inactive: -0.199 |  | inactive: -0.05
11 | HSPA8 (UniProt P11142) | inactive: -0.008 | inactive: -0.035 | inactive: 0.005 | inactive: 0.018 | inactive: -0.036 | inactive: -0.004 | inactive: 0.018 | inactive: -0.012 | inactive: -0.018 | inactive: -0.039 | inactive: 0.003 | inactive: 0.039 | inactive: -0.009 |  | inactive: 0.014 | inactive: -0.003 | inactive: -0.008 | inactive: 0.028 |  | inactive: -0.048
12 | ICMT (UniProt O60725) | inactive: -0.083 | inactive: -0.189 |  | inactive: -0.029 | inactive: -0.046 | inactive: -0.112 | inactive: 0.154 | inactive: 0.085 | inactive: 0.206 |  | inactive: 0.099 | inactive: 0.074 |  |  |  | inactive: -0.107 | inactive: 0.01 | inactive: -0.42 |  | inactive: 0.331
13 | HNRNPL (UniProt P14866) | inactive: -0.17 | inactive: 0.15 | inactive: -0.011 | inactive: 0.522 | inactive: 0.022 | inactive: -0.14 |  | inactive: 0.042 | inactive: 0.156 | inactive: -0.119 | inactive: -0.147 | inactive: -0.002 | inactive: 0.334 | inactive: 0.036 | inactive: 0.156 | inactive: -0.03 | inactive: 0.019 | inactive: -0.171 | inactive: 0.098 | inactive: -0.018
14 | HPS1 (UniProt Q92902) |  | inactive: 0.081 | inactive: -0.09 | inactive: 0.061 | inactive: 0 | inactive: 0.068 | inactive: -0.003 | inactive: 0.048 | inactive: -0.213 |  | inactive: -0.03 |  | inactive: 0.175 |  |  |  |  | inactive: 0.101 | inactive: -0.049 | 
15 | HSF1 (UniProt Q00613) |  | inactive: -0.109 | inactive: 0.074 | inactive: -0.131 | inactive: -0.146 | inactive: -0.076 | inactive: -0.026 | inactive: 0.18 | inactive: 0.086 | inactive: 0.063 | inactive: -0.009 |  | inactive: 0.032 | inactive: -0.02 | inactive: -0.211 | inactive: 0.182 |  |  | inactive: -0.064 | inactive: 0.103
16 | HLA-A isoform 2 (UniProt P04439) |  |  | inactive: 0.082 |  |  |  |  |  |  |  |  |  | inactive: 0.262 | inactive: -0.024 |  | inactive: -0.012 |  |  |  | 
17 | HYOU1, A0A494C039 |  | inactive: 0.087 | inactive: 0.057 | inactive: 0.02 | inactive: -0.118 |  | inactive: 0.091 | inactive: -0.048 |  | inactive: -0.052 | inactive: 0.038 |  | inactive: 0.065 | inactive: -0.052 | inactive: -0.045 | inactive: -0.033 |  |  | inactive: 0.211 | inactive: -0.149
18 | HSBP1 (UniProt O75506) |  |  |  |  |  |  | inactive: 0.209 |  |  |  |  |  |  |  |  |  |  |  |  | 
19 | HMG20B (UniProt Q9P0W2) | inactive: -0.085 |  | inactive: -0.01 |  |  |  | inactive: 0.202 |  |  | inactive: -0.148 |  | inactive: 0.008 | inactive: -0.224 |  | inactive: -0.128 |  | inactive: -0.017 |  |  | 
20 | HPS4 isoform 4 (UniProt Q9NQG7) | inactive: -0.12 |  |  |  |  |  | inactive: 0.175 |  |  | inactive: -0.408 |  | inactive: 0.056 |  | inactive: 0.062 | inactive: 0.282 | inactive: 0.116 | inactive: 0.051 | inactive: 0.199 | inactive: -0.048 | 
21 | HNRNPU isoform 2 (UniProt Q00839) |  |  |  |  |  | inactive: -0.017 |  |  | inactive: -0.087 |  |  |  |  | inactive: -0.131 |  | inactive: 0.076 |  |  | inactive: 0.066 | 

A stretch taken from the entries so far:
Row | Target | log2 fold change [1] | log2 fold change (filanesib) | log2 fold change (zotarolimus) | log2 fold change (idasanutlin) | log2 fold change (alisertib) | log2 fold change [2] | log2 fold change (gefitinib) | log2 fold change [3] | log2 fold change (lapatinib) | log2 fold change (pictilisib) | log2 fold change [4] | log2 fold change (crizotinib) | log2 fold change [5] | log2 fold change (duvelisib) | log2 fold change (gandotinib) | log2 fold change [6] | log2 fold change (doramapimod) | log2 fold change (ispinesib) | log2 fold change (tozasertib) | log2 fold change [7]
2 | HIGD1A isoform 2 (UniProt Q9Y241) | inactive: -0.005 | inactive: -0.025 |  |  | inactive: 0.035 |  | inactive: 0.049 | inactive: 0.15 |  |  | inactive: 0.182 | inactive: 0.25 |  |  |  |  | inactive: -0.15 | inactive: -0.075 |  | 
3 | HMBS (UniProt F5H226) | inactive: -0.04 | inactive: 0.075 | inactive: -0.138 |  | inactive: 0.844 |  |  | inactive: -0.005 |  | inactive: 0.048 | inactive: 0.672 | inactive: -0.189 | inactive: 0.193 |  | inactive: 0.107 |  | inactive: 0.093 |  | inactive: -0.045 | 
